In publication PMC4249601:
These are yes or no findings as the source states them, for the method shown. Binding seen in cells or lysates may run through a third protein. A yes stands for co-enrichment or nearness to the bait. Other partners may have been found.

Chains of the proteins cited; added tags and fusions are not shown.
UniProt P07737: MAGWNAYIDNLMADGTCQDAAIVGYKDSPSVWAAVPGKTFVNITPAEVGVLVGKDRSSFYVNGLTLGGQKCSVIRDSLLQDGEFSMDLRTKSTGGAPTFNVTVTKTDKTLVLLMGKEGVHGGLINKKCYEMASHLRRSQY
UniProt O75874: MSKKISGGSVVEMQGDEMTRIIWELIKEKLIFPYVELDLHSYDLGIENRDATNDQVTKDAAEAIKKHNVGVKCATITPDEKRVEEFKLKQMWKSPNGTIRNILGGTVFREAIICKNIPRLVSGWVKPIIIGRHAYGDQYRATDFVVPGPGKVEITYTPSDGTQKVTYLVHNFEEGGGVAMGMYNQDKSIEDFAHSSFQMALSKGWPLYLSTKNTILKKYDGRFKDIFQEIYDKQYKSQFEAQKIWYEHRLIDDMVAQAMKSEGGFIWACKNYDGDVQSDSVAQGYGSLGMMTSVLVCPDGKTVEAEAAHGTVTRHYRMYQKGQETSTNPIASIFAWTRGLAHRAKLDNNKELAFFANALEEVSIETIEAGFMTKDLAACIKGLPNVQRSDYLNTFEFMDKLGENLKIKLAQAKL

B1: GOT2 (protein, UniProt P00505 30-430)
chain: SSWWTHVEMGPPDPILGVTEAFKRDTNSKKMNLGVGAYRDDNGKPYVLPSVRKAEAQIAAKNLDKEYLPIGGLAEFCKASAELALGENSEVLKSGRFVTVQTISGTGALRIGASFLQRFFKFSRDVFLPKPTWGNHTPIFRDAGMQLQGYRYYDPKTCGFDFTGAVEDISKIPEQSVLLLHACAHNPTGVDPRPEQWKEIATVVKKRNLFAFFDMAYQGFASGDGDKDAWAVRHFIEQGINVCLCQSYAKNMGLYGERVGAFTMVCKDADEAKRVESQLKILIRPMYSNPPLNGARIAAAILNTPDLRKQWLQEVKVMADRIIGMRTQLVSNLKKEGSTHNWQHITDQIGMFCFTGLKPEQVERLIKEFSIYMTKDGRISVAGVTSSNVGYLAHAIHQVTK

Biological target: FLAG-Pfn1 (Profilin1) (UniProt P07737)
Experiment: affinity purification with mass spectrometry; whole cell extracts of HEK-293T cells transiently expressing FLAG-Pfn1; anti-FLAG antibody on agarose beads; complexes resolved on SDS-PAGE, silver stained, bands retrieved for mass spectrometry

| Molecule | binding |
| --- | --- |
| IDH1 (from UniProt O75874 1-414) | binds |
| B1 | binds |
